Reference: doi:10.1101/2021.12.08.471864
These are yes or no findings as the source states them, for the method shown. Binding seen in cells or lysates may run through a third protein. Some results given as binding are weak or reduced against the parent protein; the word gives no strength.

Protein sequences, listed by entry. Tags and fused reporters are not part of them. Lines headed by an entry give the natural chain unless they say otherwise; changes in a name come on top.
UniProt Q02563, whole entry: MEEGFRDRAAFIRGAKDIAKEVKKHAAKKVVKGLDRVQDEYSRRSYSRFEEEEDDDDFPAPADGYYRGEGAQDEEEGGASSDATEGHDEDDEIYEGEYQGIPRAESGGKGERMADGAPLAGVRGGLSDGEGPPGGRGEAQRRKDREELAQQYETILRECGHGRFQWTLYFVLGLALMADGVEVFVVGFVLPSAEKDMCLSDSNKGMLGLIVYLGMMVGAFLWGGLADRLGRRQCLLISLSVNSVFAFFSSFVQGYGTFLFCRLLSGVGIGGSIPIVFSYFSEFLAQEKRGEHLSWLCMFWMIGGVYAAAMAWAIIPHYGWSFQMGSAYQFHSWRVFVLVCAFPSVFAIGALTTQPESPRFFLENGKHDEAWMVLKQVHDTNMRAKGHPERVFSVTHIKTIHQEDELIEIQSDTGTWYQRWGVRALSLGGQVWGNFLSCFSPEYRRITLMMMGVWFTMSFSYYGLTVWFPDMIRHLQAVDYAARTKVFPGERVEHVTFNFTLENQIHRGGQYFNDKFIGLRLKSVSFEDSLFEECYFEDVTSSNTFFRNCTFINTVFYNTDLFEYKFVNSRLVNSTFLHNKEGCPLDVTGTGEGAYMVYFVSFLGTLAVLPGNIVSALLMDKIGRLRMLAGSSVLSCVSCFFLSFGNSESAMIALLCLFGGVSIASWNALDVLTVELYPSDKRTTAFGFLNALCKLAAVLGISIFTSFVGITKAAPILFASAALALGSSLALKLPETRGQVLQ
UniProt P21707, whole entry: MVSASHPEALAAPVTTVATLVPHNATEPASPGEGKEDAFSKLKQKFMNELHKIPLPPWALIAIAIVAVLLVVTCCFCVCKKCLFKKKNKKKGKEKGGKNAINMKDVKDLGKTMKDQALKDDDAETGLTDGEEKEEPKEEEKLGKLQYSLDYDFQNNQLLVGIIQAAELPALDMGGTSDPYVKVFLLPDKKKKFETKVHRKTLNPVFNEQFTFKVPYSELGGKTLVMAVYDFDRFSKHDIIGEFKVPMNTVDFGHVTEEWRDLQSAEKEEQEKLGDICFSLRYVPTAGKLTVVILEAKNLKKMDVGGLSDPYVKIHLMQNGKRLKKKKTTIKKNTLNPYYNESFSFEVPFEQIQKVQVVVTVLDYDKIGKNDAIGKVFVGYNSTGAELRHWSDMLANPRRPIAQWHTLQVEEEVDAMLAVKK

What was measured:
SV2A^Y46A-mCer = SV2A^Y46A-mCer (UniProt Q02563); experiment: co-IP
[1] = target: SV2A^WT-mCer (synaptic vesicle protein 2A tagged with mCerulean) (UniProt Q02563); experiment: co-IP

- binding (SV2A^Y46A-mCer): binds
- binding [1]: binds
Substance: synaptotagmin-1-HA (from UniProt P21707 1-421)
